Reference: PubChem BioAssay AID488937 (Broad Institute, 2010)
The inconclusive results got no clear call from the source; some entries with a clear call stand among them for comparison. Calls of active or inactive are those of the source.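 The calls were made as follows: active = compounds whose fitted half-maximal growth inhibition dose is no more than ten times the top tested dose; inconclusive = flat curve inhibiting 30 to 70%, or poor curve fit; inactive = flat within 30%, weaker potency, or rising signal.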

Experiment: Candida albicans growth inhibition, agent alone, dose response, counter-screen for reversing antifungal drug resistance, CaCi-2 strain, dry powder, set 3 (AID 488937)
Settings: C. albicans CaCi-2 growth, Alamar Blue fluorescence, 48 h; at 26 µM (top of the series)
How it was run: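 assay system = Candida albicans strain CaCi-2 yeast, fluconazole absent | buffer or medium = RPMI medium without fluconazole | times = 48 h growth at 37 °C, dye 2 h | detection = Alamar Blue fluorescence in RFU[…]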

| Structure (SMILES) | activity change, negative = inhibition |
| --- | --- |
| N#Cc1ccc(C(=O)N2CCN(c3ccccn3)CC2)cc1 | inactive: -6.52% |
| O=C(c1ccc(Cl)cc1)N1CCN(c2ncccc2C(F)(F)F)CC1 | inconclusive: -42.9% |
| c1ccc(N2CCNCC2)nc1 | inconclusive: -43.1% |
| O=C(c1cccc(Cl)c1)N1CCN(c2ccccn2)CC1 | inconclusive: -41.5% |
| CC(C)C(=O)N1CCN(c2ccnc3cc(Cl)ccc23)CC1 | inconclusive: -36.1% |
| COCCC(=O)N1CCN(c2ccccn2)CC1 | inactive: -10.3% |
| O=C(C1CCCCC1)N1CCN(c2ccccn2)CC1 | inconclusive: -28.9% |
| COc1cccnc1N1CCN(C(=O)c2ccc(Cl)cc2)CC1 | inactive: -3.13% |
